# Data source: PubChem BioAssay AID686938 (Drosophila RNAi Screening Center, 2013)
# Purpose: 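Knock-downs reducing store-operated calcium influx in Drosophila cells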 (primary screen)
# System: Drosophila S2R+ cells
# Reagent: long dsRNA against Drosophila genes, about 0.25 µg dsRNA per well, roughly 10,000 cells
# Duration: 5 days of knock-down before the calcium assay
# Treatment: thapsigargin (SERCA pump blocker) to empty calcium stores; entry signal taken 4 min after adding it
# Detection: 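Duplicate raw fluo-4 intensities per well from a plate reader, at rest and four minutes after thapsigargin emptied calcium stores; entry-to-rest ratio filled for only some wells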
# Scale: calcium entry signal: higher = stronger calcium signal after store depletion; resting calcium signal: higher = higher resting calcium signal
# Active means: 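Hit if the duplicate-averaged plate z-score for entry over resting signal is under −3; wells with weak total dye signal (Fmax z < −2) or more than 5 off-targets removed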
# Meaning of the calls: active = strongly reduced calcium entry; inactive = no strong reduction
# The deposit covers about 23,000 reagents; shown is an unselected part of those with a known target gene and a result. Over the whole deposit, 75 (0.33%) got an active call. 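Raw plate signals without normalisation; calls rest on plate z-scores that were not deposited; ratio present for only 364 wells.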 The numbers tell different reagents against one gene apart. Names joined by + are all predicted targets of the reagent. No sequences are given here. The record does not give: the dose of the treatment.
The opening 2 entries, to show the layout:
predicted target,reagent no.,"calcium entry signal, replicate 1 (fluorescence units)","calcium entry signal, replicate 2 (fluorescence units)","resting calcium signal, replicate 1 (fluorescence units)","resting calcium signal, replicate 2 (fluorescence units)",activity call
dcma,1,3.91e7,4.05e7,2.06e7,1.93e7,inactive
dcma,2,3.47e7,3.06e7,1.70e7,1.50e7,inactive

Main list, repeating the preview:
predicted target,reagent no.,"calcium entry signal, replicate 1 (fluorescence units)","calcium entry signal, replicate 2 (fluorescence units)","resting calcium signal, replicate 1 (fluorescence units)","resting calcium signal, replicate 2 (fluorescence units)",activity call
dcma,1,3.91e7,4.05e7,2.06e7,1.93e7,inactive
dcma,2,3.47e7,3.06e7,1.70e7,1.50e7,inactive
Eip74EF,1,2.20e7,2.65e7,1.24e7,2.09e7,inactive
Eip74EF,2,4.79e7,7.12e7,2.36e7,2.85e7,inactive
sisA,1,4.12e7,3.92e7,1.81e7,1.72e7,inactive
CR42532,1,3.51e7,4.98e7,1.80e7,2.05e7,inactive
Synd,1,4.72e7,4.81e7,6.20e7,2.27e7,inactive
CG15571,1,3.44e7,4.76e7,1.68e7,2.15e7,inactive
CG30273,1,2.86e7,4.67e7,1.39e7,2.46e7,inactive
tctn + B9d2,1,3.51e7,2.98e7,1.87e7,1.46e7,inactive
nonA-l,1,3.01e7,4.44e7,1.39e7,5.23e7,inactive
Su(var)2-HP2,1,3.75e7,4.59e7,1.73e7,2.08e7,inactive
Gr36a,1,2.94e7,2.48e7,1.41e7,1.10e7,inactive
CG13739,1,3.58e7,3.37e7,1.88e7,1.53e7,inactive
CG13739,2,3.55e7,3.30e7,1.78e7,1.54e7,inactive
lncRNA:CR32657,1,3.74e7,4.80e7,1.77e7,2.14e7,inactive
CG1690,1,3.91e7,5.28e7,1.88e7,2.04e7,inactive
tpr,1,3.32e7,,1.76e7,,inactive
bora,1,3.44e7,5.04e7,1.67e7,3.35e7,inactive
ND-B16.6,1,2.21e7,2.65e7,1.03e7,1.30e7,inactive
ND-B16.6,2,3.36e7,3.24e7,2.04e7,1.60e7,inactive
CG17261,1,2.56e7,1.99e7,1.40e7,1.14e7,inactive
Orct2,1,3.39e7,3.15e7,1.65e7,1.52e7,inactive
CG12725,1,4.21e7,4.06e7,1.92e7,1.76e7,inactive
